Out of some 300,000 compounds screened, about 5,400 (1.8%) were called active. The shares of active, inactive and inconclusive entries below differ from those in the screen. The call rests on the fitted dose curve; tested in HEK293 cells. A potency beside an inconclusive call is a rough fit, not a confirmed value.
Assay: qHTS for inhibitors of binding or entry into cells for Marburg Virus
Conditions: Marburg virus pseudotyped entry inhibition, cell reporter; activity change, negative = inhibition: at 37.8 µM (top of the series) unless noted
On the % scale 0 is the no-effect control and ±100 the full control effect; potency means the concentration at half of the fitted maximal effect.

Compound	Potency	activity change, negative = inhibition
Clc1ccc(CCNC(c2cccc(Cl)c2)c2nnc(-c3ccccc3)o2)cc1 (centres undefined)	inconclusive: 2.51 µM [inhibitor, full curve, poor fit]	–
Cc1ccc(OCc2cc(C(=O)N3CCc4[nH]cnc4C3c3ccccn3)no2)cc1C (centres undefined)	inactive	–
O=C(C#Cc1ccccc1)c1ccco1	inconclusive: 22.4 µM [inhibitor, partial curve, poor fit]	–
CCN(CC)c1ccc2cc(C(N)=O)c(=N)oc2c1	inconclusive: 8.91 µM [inhibitor, single point]	–
CN(CCOc1ccccc1)C(=O)c1ccc(F)c(S(=O)(=O)N2CCOCC2)c1	inconclusive: 5.62 µM [activator, full curve]	–
O=C(N/N=C/c1ccccn1)C(=O)N1CCCCCC1	inconclusive: 1 µM [inhibitor, single point]	–
Cc1ccc(S(=O)(=O)N2CCN(C(=O)CCc3c[nH]c4ccccc34)CC2)c(C)c1	inactive	–
Cc1noc(C)c1COc1cccc(C(=O)OC(C)C#N)c1 (centres undefined)	inactive	–
COc1ccc(CN(C(=O)Cn2nnc3ccccc32)C(C(=O)NC(C)(C)C)c2ccco2)cc1 (centres undefined)	inactive	–
CCOC(=O)c1c(NC(=O)c2cc(=O)c3c(C)cc(C)cc3o2)sc2c1CCC2	inconclusive: 0.562 µM [inhibitor, full curve, poor fit]	–
O=C(Cc1cccc2ccccc12)Nc1nc2ccccc2[nH]1	inconclusive: 29.1 µM [inhibitor, single point]	–
CN(C)S(=O)(=O)c1ccc(NC(=O)c2cc3ccccc3o2)cc1	inconclusive: 6.51 µM [activator, partial curve, poor fit]	–
CCC(CC)c1nc(NCCC(=O)O)c2ccccc2n1	inconclusive: 6.51 µM [inhibitor, partial curve, poor fit]	–
CN=C(Nc1cccc(OC)c1)SC1CC(=O)N(c2ccc(C(=O)O)cc2)C1=O (centres undefined)	inconclusive: 35.5 µM [activator, single point]	–
Oc1nc(Nc2cccc(Cl)c2)sc1/C=C1\C=Nc2ccccc21	inconclusive: 35.5 µM [inhibitor, single point]	–
COc1ccc(C(CCNC(C)c2ccccc2)C(C)C)cc1 (centres undefined)	inconclusive: 11.2 µM [inhibitor, partial curve, poor fit]	–
CCOC(=O)c1cnc(-c2ccc(C(F)(F)F)cn2)[nH]c1=O	inactive	–
Cc1nc2ccccc2c(=O)n1-c1ccc(NS(=O)(=O)c2cc(F)ccc2F)cc1	inconclusive: 2.51 µM [activator, full curve, poor fit]	–
CCNCc1cc(Cl)cc(OC)c1OC(C)C	inconclusive: 29.1 µM [inhibitor, single point]	–
COCCn1c(=NC(=O)c2ccco2)sc2cc(C(=O)OC)ccc21	inconclusive: 5.62 µM [activator, single point]	–
COc1ccc(OCCC(=O)Nc2cc(C)on2)cc1	inactive	–
COc1cccc(CN2CCN(C(=O)c3ccc(-c4ccccc4)cc3)CC2)c1	inconclusive: 3.55 µM [activator, single point]	–
Cc1ccc(S(=O)(=O)N2CCC(C(=O)OCC(=O)N(C)C3CCS(=O)(=O)C3)CC2)cc1C (centres undefined)	inactive	–

Compound	Potency	activity change, negative = inhibition
CC(C)c1ccc(NC(=O)CCc2ccccc2)cc1	inactive	–
N#Cc1ccccc1S(=O)(=O)N1CCC(Oc2ccc(-n3cnnn3)cc2)CC1	inconclusive: 7.94 µM [inhibitor, single point]	–
O=C(Cc1ccccc1)Nc1cc(-c2nc3cc(Cl)ccc3o2)ccc1Cl	inconclusive: 35.5 µM [activator, single point]	–
CCOC(=O)C1(Cc2cccc(OC)c2)CCCN(Cc2nccn2CC)C1 (centres undefined)	inconclusive: 10 µM [inhibitor, partial curve, poor fit]	–
Cc1nc(SCC(=O)N2CCN(c3ccccn3)CC2)c(C#N)c(C)c1C	inconclusive: 14.1 µM [inhibitor, single point]	–
O=C(NCCc1ccccc1)N1CCCC(CNS(=O)(=O)Cc2ccccc2)C1 (centres undefined)	–	inconclusive: 24.6% [activator] [at 46.1 µM]
O=[n+]1cc(-c2ccc(Cl)cc2)n([O-])c2c1CCCCC2	inconclusive: 0.112 µM [activator, full curve, poor fit]	–
O=C(NC1CCCN(Cc2ccc(Cl)cc2)C1)c1ccnc(Cl)c1 (centres undefined)	inconclusive: 3.98 µM [inhibitor, partial curve, poor fit]	–
Cc1cc(C)cc(-n2nnc(C(=O)NCc3ccc(Cl)cc3)c2N)c1	inconclusive: 20.6 µM [inhibitor, single point]	–
COC(=O)[C@@H]1Cc2c([nH]c3ccccc23)C(C)(C)N1C(=O)CCl	active: 7.08 µM	–
CCc1c(C)nc2nncn2c1Nc1cccc(C)c1	inactive	–
Cc1ccc(CN2CC(N3CCN(C(=O)c4ccco4)CC3)CS2(=O)=O)cc1 (centres undefined)	inconclusive: 0.0315 µM [activator, full curve, poor fit]	–
Cc1cccc(NC(=O)CSc2ccc(-c3ccco3)nn2)c1	inactive	–
CCN1CCN(c2ccc(S(=O)(=O)N3CCCCC3)cc2NC(=O)c2cccc(C(F)(F)F)c2)CC1	inconclusive: 15.8 µM [inhibitor, single point]	–
S=c1[nH]nc(-c2cccs2)n1/N=C/c1cn(-c2ccccc2)nc1-c1ccccc1	inconclusive: 7.08 µM [inhibitor, full curve, poor fit]	–
O=C(NN=Cc1cc(Cl)ccc1[N+](=O)[O-])c1cccc2ccccc12	inactive	–
O=C(COc1ccc2ccccc2c1)NC1CC1	inactive	–
CCC(C)NC(=O)c1c(N)n(/N=C/c2ccccn2)c2nc3ccccc3nc12 (centres undefined)	inconclusive: 23.1 µM [inhibitor, single point]	–
COC(=O)N/N=C/c1ccccc1OCc1ccccc1	inactive	–
Cc1nc2ccc(C(=O)OCc3nnc(-c4ccc(Br)cc4)o3)cc2nc1C	inconclusive: 1.26 µM [inhibitor, single point]	–
CCOC(=O)c1cc(-c2ccccc2)sc1NC(=O)CC(C)C	inactive	–
Cc1cc(=O)[nH]c(-c2cccnc2)n1	inconclusive: 35.5 µM [activator, single point]	–
Cc1cc(NC(=O)COn2nnc3ccc(Cl)cc32)no1	inconclusive: 3.16 µM [activator, single point]	–

Looked up above:
`COC(=O)[C@@H]1Cc2c([nH]c3ccccc23)C(C)(C)N1C(=O)CCl` – Potency: active: 7.08 µM
`Cc1ccc(CN2CC(N3CCN(C(=O)c4ccco4)CC3)CS2(=O)=O)cc1` (centres undefined) – Potency: inconclusive: 0.0315 µM [activator, full curve, poor fit]

Remaining list, next part

Compound	Potency	activity change, negative = inhibition
CCc1noc(C)c1C(=O)Nc1nc(-c2cc(C)ccc2C)c(C)s1	inconclusive: 2.82 µM [inhibitor, single point]	–
CCn1c(-c2cc(-c3ccc(C)cc3)nc3ccccc23)n[nH]c1=S	inconclusive: 35.5 µM [inhibitor, single point]	–
O=C(CN1CCCCCC1)Nc1ccc(Cl)cn1	inconclusive: 5.62 µM [inhibitor, single point]	–
O=C(Nc1ccc(Cl)c(Cl)c1)OCc1cncs1	inactive	–
CCOC(=O)c1ccccc1NC(=O)CN1C(=O)NC(C)(CCc2ccccc2)C1=O (centres undefined)	inconclusive: 0.1 µM [inhibitor, full curve, poor fit]	–
O=C(Nc1ccc(N2CCOCC2)c(Cl)c1)c1ccc(F)cc1	inconclusive: 6.31 µM [activator, partial curve, poor fit]	–
COc1ccccc1N=C1SC(C(=O)Nc2cccc(Cl)c2Cl)C(N)=C1C(N)=O (centres undefined)	inconclusive: 10 µM [inhibitor, single point]	–
CCC(C)NC(=O)c1ccc(CSCc2ccccc2Cl)o1 (centres undefined)	inconclusive: 10 µM [inhibitor, partial curve]	–
CCN(CC(=O)Nc1ccc(NC(C)=O)cc1)C(=O)/C=C/c1ccco1	inactive	–
Cc1nc(N)sc1C(=O)N/N=C/c1ccco1	inactive	–
CCCn1c(N2CCC(Cc3ccccc3)CC2)nc2c1c(=O)[nH]c(=O)n2C	inconclusive: 20 µM [inhibitor, partial curve, poor fit]	–
Cc1ccc(CN2CC(C(=O)O)CC2=O)cc1 (centres undefined)	inconclusive: 18.3 µM [activator, single point]	–
Cc1cccc2cc(C#N)c(SCC(=O)NNC(=O)Cc3ccccc3)nc12	inconclusive: 32.6 µM [inhibitor, single point]	–
OCCNCc1cccc(OCc2ccc(Cl)cc2)c1	inconclusive: 11.2 µM [inhibitor, partial curve, poor fit]	–
COc1ccc(N(C(=O)c2snc(C(N)=O)c2N)C(C(=O)NC2CCCC2)c2ccco2)cc1 (centres undefined)	inconclusive: 10 µM [inhibitor, partial curve, poor fit]	–
O=C(CCCN1C(=O)/C(=C/c2ccco2)SC1=S)Nc1cccc(C(=O)O)c1	inactive	–
CS(=O)(=O)N(CC(=O)N1CCN(Cc2ccccc2)CC1)c1cccc([N+](=O)[O-])c1	inactive	–
Cc1ccc(C(CC(=O)O)Nc2nc(N3CCOCC3)nc(N3CCOCC3)n2)cc1 (centres undefined)	inconclusive: 12.6 µM [activator, single point]	–
CC(=O)Nc1ccc(Nc2nnc(-c3ccc(O)cc3)c3ccccc23)cc1	inconclusive: 35.5 µM [activator, single point]	–
CC(=O)c1ccc(S(=O)(=O)Nc2cccc(S(=O)(=O)NC3=NCCC3)c2)cc1	inconclusive: 35.5 µM [activator, single point]	–
COc1ccc(N2C(=O)CC(N(CCc3ccccc3)C(=O)c3ccccc3)C2=O)cc1 (centres undefined)	inactive	–
CN1C(=O)c2ccccc2Sc2ccc(NC(=O)N3CCOCC3)cc21	inconclusive: 11.2 µM [inhibitor, partial curve]	–
CC(=O)Nc1ccc(NC(=O)CSc2ccc(-c3cccnc3)nn2)cc1	inactive	–

Source: PubChem BioAssay AID540276 (National Center for Advancing Translational Sciences (NCATS), 2011)
